Source: PubChem BioAssay AID540303 (National Center for Advancing Translational Sciences (NCATS), 2011)
Out of some 330,000 compounds screened, about 1,000 (0.3%) were called active. This list was built around the results that the source calls inconclusive (neither active nor inactive); the mix of calls is not that of the screen. The call rests on the fitted dose curve; in most records, active means well fitted inhibition curve with a large enough effect; inconclusive means small, poorly fitted or top-dose-only effect; inactive means no such curve, though single readings can be large or run the other way; tested in mouse RAW 264.7 cells. A potency beside an inconclusive call is a rough fit, not a confirmed value.
On the % scale 0 is the no-effect control and ±100 the full control effect; potency means the concentration at half of the fitted maximal effect.

Test: qHTS for Inhibitors of Cell Surface uPA Generation; further: nearly all actives have a fitted effect of over 55% in size
Conditions: cell surface uPA generation assay; series mostly up to 38.3 µM; activity change, negative = inhibition: at the top concentration
Summary of the method: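 RAW 264.7 cells (4000/well) were plated overnight at 37 C and then given compounds in a 1:5 series (up to 38.3 uM final) plus reagent for 24 h. Intracellular ATP was measured by ATP-Lite luminescence and stays elevated when uPA-dependent LF entry is blocked.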
For COC(=O)C1=C(c2ccc(Cl)c(C(F)(F)F)c2)C[C@@H]2CC[C@H]1N2C(=O)NCc1ccco1, the “activity change, negative = inhibition” value was inactive: -13.7%.
With CCOc1ccc(NC(=O)c2c(O)[nH]c(=O)[nH]c2=O)cc1 the Potency was inconclusive: 4.47 µM [inhibitor, partial curve, poor fit].
For O=c1[nH]c(=S)[nH]c(O)c1N=Nc1ccc(OC(F)F)cc1, the Potency was inconclusive: 10 µM [inhibitor, partial curve].
With CC(=O)O[C@@]12CO[C@@H]1C[C@H](OC1OCC(O)C(O)C1O)[C@@]1(C)C(=O)[C@H](O)C3=C(C)[C@@H](OC(=O)[C@H](O)[C@@H](NC(=O)c4ccccc4)c4ccccc4)C[C@@](O)([C@@H](OC(=O)c4ccccc4)C12)C3(C)C (some centres not stated) the Potency was inconclusive: 3.55 µM [inhibitor, full curve].
In the case of COC(=O)c1cn(C(=O)c2cccc3ccccc23)c2ccccc12, the Potency is reported as inconclusive: 3.98 µM [inhibitor, partial curve, poor fit].
In the case of Cc1ccc(Nc2nnc(SCC(=O)NCC3CCCO3)s2)cc1C (configuration not stated), the Potency is reported as inconclusive: 3.16 µM [inhibitor, partial curve, poor fit].
In the case of C[C@H](CO)N1C[C@H](C)[C@@H](CN(C)Cc2ccc(Cl)c(Cl)c2)Oc2c(NC(=O)C3CC3)cccc2C1=O, the Potency is reported as inconclusive: 11.2 µM [inhibitor, single point].
In the case of Cc1ccc(Cl)cc1NC(=O)CC(O)(C(F)(F)F)C(F)(F)F, the Potency is reported as inconclusive: 28.2 µM [inhibitor, single point].
For COC(=O)C1=C(c2cc3ccccc3o2)C[C@@H]2CC[C@H]1N2C(=O)NCc1ccc(C(F)(F)F)cc1, the Potency was inconclusive: 12.6 µM [inhibitor, single point].
With Cc1ccc2c(c1N)C(=O)c1ccccc1C2=O the Potency was inconclusive: 11.2 µM [inhibitor, single point].
With Cc1cccc(-n2ncc3c(NCc4ccccc4)ncnc32)c1 the Potency was inconclusive: 10 µM [inhibitor, partial curve, poor fit].
In the case of O=C(C1=C[C@H](c2ccc(Br)cc2)C[C@H](OCCCCO)O1)N1CCN(Cc2ccc3c(c2)OCO3)CC1, the Potency is reported as inconclusive: 10 µM [inhibitor, single point].
In the case of Cc1ccc(N2C(=O)NC(=O)/C(=C\c3cc(C)n(-c4sc5c(c4C#N)CCCC5)c3C)C2=O)cc1, the “activity change, negative = inhibition” value is reported as inactive: 0.172%.
With Cc1ncc(CN2CCCC(C(=O)c3ccc(C(C)(C)C)cc3)C2)s1 (configuration not stated) the Potency was inconclusive: 11.2 µM [inhibitor, single point].
In the case of O=C(Cc1ccc(F)cc1)N1CCC(CC2CC(c3cccc(Br)c3)=NO2)(C(=O)NCC2CCCCC2)CC1 (configuration not stated), the Potency is reported as inconclusive: 12.6 µM [inhibitor, single point].
For CCOC(=O)C1(CCOc2ccccc2)CCN(C(C)CSC)CC1 (configuration not stated), the Potency was inconclusive: 2.82 µM [inhibitor, partial curve, poor fit].
For O=C1C=CCC(/C=C/c2ccccc2)O1 (configuration not stated), the Potency was active: 1 µM.
For Cn1c(O)c(C(=Nc2ccccc2)SCc2ccc(Cl)cc2)c(=O)n(C)c1=O, the Potency was inconclusive: 12.6 µM [inhibitor, single point].
In the case of O=C(CCS(=O)(=O)Cc1ccccc1)Nc1nc2c(s1)CCCC2, the Potency is reported as inconclusive: 12.6 µM [inhibitor, partial curve, poor fit].
With COC(=O)C1=C(c2cccc(OCc3ccccc3)c2)C[C@@H]2CC[C@H]1N2C(=O)NCc1ccc(N(C)C)cc1 the Potency was inconclusive: 11.2 µM [inhibitor, partial curve].
With CCCCCCCCCCCCCCCC[N+](C)(C)C the Potency was inconclusive: 3.16 µM [inhibitor, full curve, poor fit].
With S=c1nc[nH]c2nc[nH]c12 the Potency was inconclusive: 2.82 µM [inhibitor, full curve, poor fit].
For CCN(CC)C(=O)c1ccc(NC(=S)NC(=O)CCc2ccccc2)cc1, the “activity change, negative = inhibition” value was inactive: -3.17%.
For CCOC(=O)c1c(NC(=O)CSc2nnc(-c3c[nH]c4ccccc34)n2CCOC)sc2c1CCCCC2, the Potency was inconclusive: 12.6 µM [inhibitor, single point].
In the case of NC(=O)NO, the Potency is reported as inconclusive: 8.91 µM [inhibitor, partial curve, poor fit].
In the case of Clc1ccc(COC(Cn2ccnc2)c2ccc(Cl)cc2Cl)cc1 (configuration not stated), the Potency is reported as inconclusive: 12.6 µM [inhibitor, single point].
With CC(C)=CCC/C(C)=C/CNC(=O)C[C@H]1C[C@H](C(=O)N(C(C)C)C(C)C)[C@@]2(C)c3[nH]c4cc(-c5ccco5)ccc4c3CCN2C1=O the Potency was inconclusive: 12.6 µM [inhibitor, single point].
For CCN(CC)C(=O)c1ccc(NC(=O)Nc2ccccc2F)cc1, the Potency was active: 4.47 µM.
In the case of COC(=O)C1=C(C)N(c2cc(C)cc(C)c2)/C(=C/c2ccc(O)cc2)C1=O, the Potency is reported as inconclusive: 11.2 µM [inhibitor, partial curve, poor fit].
With O=C(Nc1sc2c(c1C(=O)O)CCCCC2)c1cccs1 the Potency was inconclusive: 10 µM [inhibitor, partial curve, poor fit].
For Cc1c(O)cccc1C(=O)N[C@@H](CSc1ccccc1)[C@H](O)CN1C[C@H]2CCCC[C@H]2C[C@H]1C(=O)NC(C)(C)C, the Potency was inconclusive: 7.94 µM [inhibitor, single point].
With COc1c(C)cc(C(=O)C2CCCN(Cc3cccc(O)c3)C2)cc1C (configuration not stated) the Potency was inconclusive: 3.98 µM [inhibitor, partial curve, poor fit].
For CCc1ccc(NC(=O)c2cc(S(=O)(=O)N3CCCC3)c[nH]2)cc1, the Potency was inconclusive: 12.6 µM [inhibitor, single point].
For Nc1c(Cl)cc(-c2csc(NC(CO)c3nc4ccccc4n3CCOCCO)n2)cc1Cl (configuration not stated), the Potency was inconclusive: 11.2 µM [inhibitor, partial curve, poor fit].
With COC1=C(OC)[C@]23CCc4ccc(OC)c(OC)c4[C@]2(CCN3C)CC1=O the Potency was inconclusive: 7.94 µM [inhibitor, partial curve, poor fit].
In the case of COc1cc(C=C2C(=O)NC(=O)NC2=O)cc(OC)c1OC, the “activity change, negative = inhibition” value is reported as inactive: 12%.
With CCOC(=O)c1c(N2C(=O)C=CC2=O)sc(C)c1C the Potency was inconclusive: 28.2 µM [inhibitor, single point].
For COC(=O)C1=C(c2ccc(-c3ccccc3)c(F)c2)C[C@@H]2CC[C@H]1N2C(=O)NCc1ccco1, the Potency was inconclusive: 12.6 µM [inhibitor, single point].
With COc1ccc2cc1Oc1ccc(cc1)CC1c3c(cc(OC)c4c3Oc3cc5c(cc3O4)CCNC5C2)CCN1C (configuration not stated) the Potency was inconclusive: 12.6 µM [inhibitor, single point].
With CC(C)(O)/C=C/C(=O)[C@](C)(O)C1[C@H](O)C[C@@]2(C)C3CC=C4C(C[C@H](O)[C@@H](O)C4(C)C)[C@]3(C)C(=O)C[C@]12C (some centres not stated) the Potency was inconclusive: 1.58 µM [inhibitor, full curve].
For O=C(c1ccc(S(=O)(=O)NCc2ccco2)cc1)N1CCN(Cc2ccccc2F)CC1, the Potency was inconclusive: 12.6 µM [inhibitor, partial curve, poor fit].
In the case of CCCC(=O)NC1=C(N2CC2)C(=O)C(NC(=O)CCC)=C(N2CC2)C1=O, the “activity change, negative = inhibition” value is reported as inactive: -13.1%.
With C=C1C(=O)[C@@]23[C@H](O)C[C@@H]4C(C)(C)CC[C@H](O)[C@@]4(C)[C@@H]2CC[C@@H]1[C@H]3O the Potency was inconclusive: 2.51 µM [inhibitor, partial curve, poor fit].
With COC(=O)C1=C(c2ccc(F)cc2OCc2ccccc2)C[C@@H]2CC[C@H]1N2C(=O)NCCCc1ccccc1 the Potency was inconclusive: 12.6 µM [inhibitor, single point].
For Cc1cc(C)c2sc(NC(=O)c3ccc([N+](=O)[O-])o3)nc2c1, the Potency was inconclusive: 8.91 µM [inhibitor, partial curve, poor fit].
In the case of C[C@H]1CCC[C@@H](O)CCC/C=C/c2cc(O)cc(O)c2C(=O)O1, the Potency is reported as inconclusive: 12.6 µM [inhibitor, single point].
With Cc1ccc(/C=C2/C(=O)NC(=O)N(C)C2=O)cc1 the “activity change, negative = inhibition” value was inactive: 1.05%.
With COC(=O)C1=C(c2ccc3ccccc3c2)C[C@@H]2CC[C@H]1N2C(=O)NCc1ccc(F)cc1 the Potency was inconclusive: 12.6 µM [inhibitor, single point].
With O=C(CCl)Nc1nccs1 the Potency was inconclusive: 12.6 µM [inhibitor, single point].
In the case of CCCCCCC(C)(C)c1ccc([C@@H]2C[C@H](O)CC[C@H]2CCCO)c(O)c1, the “activity change, negative = inhibition” value is reported as inactive: 14.7%.
For CCc1ccc(CN2CCN(Cc3cc(Br)ccc3O)CC2)cc1, the “activity change, negative = inhibition” value was inactive: 3.33%.
With Nc1nc(Nc2ccccc2F)sc1C(=O)c1ccccc1 the Potency was inconclusive: 3.55 µM [inhibitor, partial curve].
In the case of COC(=O)C1=C(c2cc3ccccc3o2)C[C@@H]2CC[C@H]1N2C(=O)N1CCCCC1, the Potency is reported as inconclusive: 11.2 µM [inhibitor, partial curve, poor fit].
With O=C(Cc1c(Cl)cccc1Cl)N1CCN(Cc2ccccc2)CC1 the Potency was inconclusive: 3.16 µM [inhibitor, single point].
In the case of c1ccc2c(c1)[IH]c1ccccc1-2, the Potency is reported as inconclusive: 0.794 µM [inhibitor, full curve, poor fit].
For COC(=O)C1=C(c2ccc(Cl)c(C(F)(F)F)c2)C[C@@H]2CC[C@H]1N2C(=O)N1CCC(O)(c2ccc(Cl)cc2)CC1, the Potency was inconclusive: 8.91 µM [inhibitor, single point].
